{"sequences": {"note": "The chains behind the UniProt entries cited, without tags or fusion partners. Where a name states a change or a piece, a line headed by the entry shows the natural chain unless it says otherwise.", "UniProt O95155, whole entry, looked up": "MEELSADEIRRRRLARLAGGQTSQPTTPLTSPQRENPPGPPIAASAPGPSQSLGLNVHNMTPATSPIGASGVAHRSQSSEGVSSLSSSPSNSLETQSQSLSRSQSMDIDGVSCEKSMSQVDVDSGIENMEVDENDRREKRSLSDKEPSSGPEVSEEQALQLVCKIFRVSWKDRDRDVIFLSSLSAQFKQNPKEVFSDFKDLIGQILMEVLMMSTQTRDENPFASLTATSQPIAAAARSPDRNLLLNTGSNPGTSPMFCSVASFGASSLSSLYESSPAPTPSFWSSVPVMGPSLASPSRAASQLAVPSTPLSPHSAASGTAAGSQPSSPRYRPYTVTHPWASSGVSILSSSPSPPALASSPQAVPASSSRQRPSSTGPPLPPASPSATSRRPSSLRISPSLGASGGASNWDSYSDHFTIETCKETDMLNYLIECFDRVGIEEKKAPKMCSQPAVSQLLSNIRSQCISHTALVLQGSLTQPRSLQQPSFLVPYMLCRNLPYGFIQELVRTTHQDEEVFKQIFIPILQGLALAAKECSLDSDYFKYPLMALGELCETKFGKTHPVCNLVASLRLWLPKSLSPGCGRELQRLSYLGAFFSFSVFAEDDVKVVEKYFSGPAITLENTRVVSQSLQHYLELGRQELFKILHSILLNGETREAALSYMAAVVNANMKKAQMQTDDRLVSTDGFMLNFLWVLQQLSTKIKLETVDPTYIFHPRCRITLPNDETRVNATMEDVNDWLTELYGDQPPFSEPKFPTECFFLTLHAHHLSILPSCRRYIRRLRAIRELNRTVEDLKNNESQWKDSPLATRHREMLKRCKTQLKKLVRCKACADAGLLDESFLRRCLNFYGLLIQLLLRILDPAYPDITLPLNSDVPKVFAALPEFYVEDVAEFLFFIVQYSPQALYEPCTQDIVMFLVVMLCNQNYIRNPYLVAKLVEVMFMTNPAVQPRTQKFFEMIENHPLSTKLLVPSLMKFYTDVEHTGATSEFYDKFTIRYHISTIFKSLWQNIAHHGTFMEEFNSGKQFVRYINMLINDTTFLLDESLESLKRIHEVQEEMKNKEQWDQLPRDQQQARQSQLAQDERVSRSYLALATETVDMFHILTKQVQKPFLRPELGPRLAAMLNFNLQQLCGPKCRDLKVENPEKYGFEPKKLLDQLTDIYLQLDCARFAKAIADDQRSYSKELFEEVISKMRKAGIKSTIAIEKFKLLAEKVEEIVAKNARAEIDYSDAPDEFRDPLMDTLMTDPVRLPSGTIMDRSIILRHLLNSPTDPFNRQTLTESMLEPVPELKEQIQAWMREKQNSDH", "UniProt Q9BZL1": "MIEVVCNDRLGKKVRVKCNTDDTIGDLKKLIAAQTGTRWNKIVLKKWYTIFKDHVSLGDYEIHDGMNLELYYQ", "UniProt Q8IWV8": "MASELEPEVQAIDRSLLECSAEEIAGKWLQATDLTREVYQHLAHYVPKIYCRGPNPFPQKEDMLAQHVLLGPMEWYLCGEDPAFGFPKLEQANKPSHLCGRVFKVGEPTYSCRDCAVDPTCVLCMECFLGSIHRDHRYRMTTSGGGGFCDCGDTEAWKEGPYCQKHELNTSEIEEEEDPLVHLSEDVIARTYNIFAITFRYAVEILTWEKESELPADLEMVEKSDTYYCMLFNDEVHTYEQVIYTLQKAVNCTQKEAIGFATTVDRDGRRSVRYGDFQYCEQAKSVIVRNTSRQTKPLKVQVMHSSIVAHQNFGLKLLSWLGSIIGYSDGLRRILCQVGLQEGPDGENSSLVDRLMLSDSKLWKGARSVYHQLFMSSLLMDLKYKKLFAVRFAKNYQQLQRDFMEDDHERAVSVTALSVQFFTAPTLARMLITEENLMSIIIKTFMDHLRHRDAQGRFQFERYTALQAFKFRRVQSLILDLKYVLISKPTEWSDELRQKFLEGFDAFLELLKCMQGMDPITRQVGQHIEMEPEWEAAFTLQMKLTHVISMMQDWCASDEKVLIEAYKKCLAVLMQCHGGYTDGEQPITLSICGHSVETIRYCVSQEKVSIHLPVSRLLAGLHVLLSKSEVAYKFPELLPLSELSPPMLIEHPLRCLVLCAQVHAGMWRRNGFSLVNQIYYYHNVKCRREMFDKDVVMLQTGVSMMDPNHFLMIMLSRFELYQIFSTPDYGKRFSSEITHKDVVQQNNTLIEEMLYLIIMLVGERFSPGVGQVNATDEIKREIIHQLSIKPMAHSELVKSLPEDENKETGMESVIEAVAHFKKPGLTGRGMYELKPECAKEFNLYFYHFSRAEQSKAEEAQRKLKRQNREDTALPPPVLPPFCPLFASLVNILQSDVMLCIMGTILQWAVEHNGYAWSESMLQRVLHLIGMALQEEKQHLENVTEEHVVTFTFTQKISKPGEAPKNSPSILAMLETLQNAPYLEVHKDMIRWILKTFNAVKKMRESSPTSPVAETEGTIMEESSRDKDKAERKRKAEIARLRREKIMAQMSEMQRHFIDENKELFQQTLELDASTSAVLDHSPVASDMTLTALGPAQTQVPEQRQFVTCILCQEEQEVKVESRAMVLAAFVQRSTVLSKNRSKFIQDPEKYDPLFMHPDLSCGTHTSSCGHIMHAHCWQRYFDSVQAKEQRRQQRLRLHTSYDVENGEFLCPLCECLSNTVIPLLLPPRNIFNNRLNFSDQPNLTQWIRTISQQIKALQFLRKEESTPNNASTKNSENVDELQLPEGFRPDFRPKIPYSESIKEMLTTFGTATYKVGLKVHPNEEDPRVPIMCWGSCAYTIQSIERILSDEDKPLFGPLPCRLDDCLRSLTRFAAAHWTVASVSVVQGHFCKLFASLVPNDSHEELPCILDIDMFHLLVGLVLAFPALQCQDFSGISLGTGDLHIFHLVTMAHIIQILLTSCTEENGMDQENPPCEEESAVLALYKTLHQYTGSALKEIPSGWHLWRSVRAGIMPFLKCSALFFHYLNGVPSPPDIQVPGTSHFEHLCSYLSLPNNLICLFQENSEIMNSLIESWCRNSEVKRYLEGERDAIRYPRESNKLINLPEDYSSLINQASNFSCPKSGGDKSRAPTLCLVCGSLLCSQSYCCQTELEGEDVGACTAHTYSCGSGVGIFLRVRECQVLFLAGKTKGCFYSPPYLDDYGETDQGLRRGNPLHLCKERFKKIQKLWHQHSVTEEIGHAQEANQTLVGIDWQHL", "UniProt Q9UBT2": "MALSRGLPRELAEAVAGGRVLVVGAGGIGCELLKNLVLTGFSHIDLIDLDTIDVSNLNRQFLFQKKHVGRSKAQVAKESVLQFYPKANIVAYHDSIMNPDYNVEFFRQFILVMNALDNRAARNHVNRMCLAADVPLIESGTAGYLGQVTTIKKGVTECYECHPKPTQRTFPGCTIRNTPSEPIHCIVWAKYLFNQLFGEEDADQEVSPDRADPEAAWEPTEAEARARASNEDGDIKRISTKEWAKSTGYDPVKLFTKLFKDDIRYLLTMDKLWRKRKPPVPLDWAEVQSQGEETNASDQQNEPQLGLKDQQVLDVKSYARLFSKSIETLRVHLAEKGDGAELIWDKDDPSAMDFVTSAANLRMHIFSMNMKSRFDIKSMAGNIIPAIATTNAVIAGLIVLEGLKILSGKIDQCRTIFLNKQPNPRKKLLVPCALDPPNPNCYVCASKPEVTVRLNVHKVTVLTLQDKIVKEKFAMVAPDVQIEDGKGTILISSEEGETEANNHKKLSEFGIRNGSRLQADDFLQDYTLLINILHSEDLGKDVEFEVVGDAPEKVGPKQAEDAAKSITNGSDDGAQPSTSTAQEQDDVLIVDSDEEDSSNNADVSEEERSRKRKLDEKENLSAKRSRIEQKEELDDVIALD", "UniProt Q16881, whole entry, looked up": "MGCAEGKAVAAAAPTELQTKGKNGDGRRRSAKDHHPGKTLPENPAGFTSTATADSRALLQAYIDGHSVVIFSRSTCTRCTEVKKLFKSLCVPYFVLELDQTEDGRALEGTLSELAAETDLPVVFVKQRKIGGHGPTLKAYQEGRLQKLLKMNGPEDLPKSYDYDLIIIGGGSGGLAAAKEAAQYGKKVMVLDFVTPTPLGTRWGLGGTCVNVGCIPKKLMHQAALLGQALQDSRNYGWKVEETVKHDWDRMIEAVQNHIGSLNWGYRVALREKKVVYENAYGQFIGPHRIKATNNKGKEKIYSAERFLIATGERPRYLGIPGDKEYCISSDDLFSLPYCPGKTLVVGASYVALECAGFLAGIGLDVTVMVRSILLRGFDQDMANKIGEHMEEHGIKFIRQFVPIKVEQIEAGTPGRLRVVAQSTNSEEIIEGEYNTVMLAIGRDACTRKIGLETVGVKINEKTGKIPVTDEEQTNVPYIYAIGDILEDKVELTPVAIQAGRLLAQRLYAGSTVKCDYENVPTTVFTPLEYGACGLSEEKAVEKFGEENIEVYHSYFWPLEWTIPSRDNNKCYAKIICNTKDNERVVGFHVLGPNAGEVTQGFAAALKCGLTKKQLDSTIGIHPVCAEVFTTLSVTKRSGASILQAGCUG", "UniProt P83876": "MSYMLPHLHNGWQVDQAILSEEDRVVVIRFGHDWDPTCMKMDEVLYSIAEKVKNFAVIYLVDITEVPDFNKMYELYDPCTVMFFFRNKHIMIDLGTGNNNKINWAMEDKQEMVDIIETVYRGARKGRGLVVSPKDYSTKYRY", "UniProt P22314": "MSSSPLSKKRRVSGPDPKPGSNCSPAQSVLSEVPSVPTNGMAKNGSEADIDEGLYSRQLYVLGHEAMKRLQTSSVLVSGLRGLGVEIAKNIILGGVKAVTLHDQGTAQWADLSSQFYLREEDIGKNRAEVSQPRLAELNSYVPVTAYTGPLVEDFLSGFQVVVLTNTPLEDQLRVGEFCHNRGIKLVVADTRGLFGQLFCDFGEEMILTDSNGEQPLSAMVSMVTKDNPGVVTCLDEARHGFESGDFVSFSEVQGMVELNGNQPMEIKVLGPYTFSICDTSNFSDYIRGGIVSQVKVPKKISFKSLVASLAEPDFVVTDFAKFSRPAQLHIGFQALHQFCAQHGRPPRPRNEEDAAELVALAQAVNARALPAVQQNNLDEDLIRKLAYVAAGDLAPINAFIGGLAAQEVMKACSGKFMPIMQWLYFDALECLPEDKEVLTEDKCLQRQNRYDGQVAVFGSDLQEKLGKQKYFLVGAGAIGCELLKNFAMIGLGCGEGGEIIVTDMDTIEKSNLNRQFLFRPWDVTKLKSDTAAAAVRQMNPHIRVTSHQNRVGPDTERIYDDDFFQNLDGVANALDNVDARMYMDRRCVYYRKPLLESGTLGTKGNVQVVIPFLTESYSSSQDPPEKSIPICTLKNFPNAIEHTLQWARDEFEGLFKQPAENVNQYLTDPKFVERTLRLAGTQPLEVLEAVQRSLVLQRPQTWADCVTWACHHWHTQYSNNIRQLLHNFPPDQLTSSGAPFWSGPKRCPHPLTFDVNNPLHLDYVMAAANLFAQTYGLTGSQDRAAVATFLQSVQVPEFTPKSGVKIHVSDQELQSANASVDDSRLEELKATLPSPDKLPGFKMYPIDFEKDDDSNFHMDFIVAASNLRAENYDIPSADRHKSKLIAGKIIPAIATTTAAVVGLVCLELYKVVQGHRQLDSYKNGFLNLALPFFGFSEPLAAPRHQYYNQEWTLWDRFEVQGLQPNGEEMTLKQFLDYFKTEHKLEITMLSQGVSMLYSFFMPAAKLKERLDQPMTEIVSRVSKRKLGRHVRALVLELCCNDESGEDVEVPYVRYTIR", "UniProt P19971": "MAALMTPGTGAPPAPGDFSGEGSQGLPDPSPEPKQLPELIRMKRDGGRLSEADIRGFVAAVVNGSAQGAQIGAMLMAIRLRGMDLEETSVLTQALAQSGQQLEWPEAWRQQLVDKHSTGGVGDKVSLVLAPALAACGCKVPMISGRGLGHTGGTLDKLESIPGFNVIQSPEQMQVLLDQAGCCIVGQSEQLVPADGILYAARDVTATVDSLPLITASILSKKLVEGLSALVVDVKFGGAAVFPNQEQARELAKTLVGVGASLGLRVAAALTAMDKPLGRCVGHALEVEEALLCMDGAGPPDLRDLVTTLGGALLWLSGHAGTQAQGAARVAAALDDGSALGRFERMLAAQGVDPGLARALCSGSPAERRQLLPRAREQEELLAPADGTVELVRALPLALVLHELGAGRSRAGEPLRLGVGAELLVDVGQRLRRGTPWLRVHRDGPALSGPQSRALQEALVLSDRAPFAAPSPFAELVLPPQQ"}, "source": "the supplement of paper PMC12067093", "about": "“Discovery and optimisation of a covalent ligand for TRIM25 and its application to targeted protein ubiquitination” (Chemical Science, 2025)", "note": "This is one part of the list.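 Also: competitive profiling in live THP-1 cells: cysteine peptides tagged with an iodoacetamide desthiobiotin (IA-DTB) probe, intensity after compound treatment relative to DMSO-treated cells.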", "data": [{"compound": "Cc1cc(ccc1-c1ccccc1)C(=O)N1CCCN(CC1)C(=O)CCl [compound 10]", "assay": "probe-labelled cysteine peptide fold change vs DMSO (competition) (log2 fold change); higher = less target engagement (more negative = stronger competition)", "conditions": "10 µM; THP-1; incubation time: 4 h", "values": [{"target": "UACA_Q9BZF9_83_GNLECLNAILIHGVDITTSDTAGR (UniProt Q9BZF9)", "probe-labelled cysteine peptide fold change": -0.0861}, {"target": "UBE4B_O95155_113_SQSMDIDGVSCEK (UniProt O95155)", "probe-labelled cysteine peptide fold change": -0.246}, {"target": "UBL5_Q9BZL1_6_IEVVCNDR (UniProt Q9BZL1)", "probe-labelled cysteine peptide fold change": 0.0345}, {"target": "UBR1_Q8IWV7_1197_IHVDLFDLESGEYLCPLCK (UniProt Q8IWV7)", "probe-labelled cysteine peptide fold change": -0.181}, {"target": "UBR5_O95071_51_QCVVGPNHAAFLLEDGR (UniProt O95071)", "probe-labelled cysteine peptide fold change": 0.141}, {"target": "UBE2O_Q9C0C9_598_VQSCPDPAVYGVVQSGDHIGR (UniProt Q9C0C9)", "probe-labelled cysteine peptide fold change": -0.267}, {"target": "UBR4_Q5T4S7_2222_HTACNEQQR (UniProt Q5T4S7)", "probe-labelled cysteine peptide fold change": -0.245}, {"target": "UBR2_Q8IWV8_837_GMYELKPECAK (UniProt Q8IWV8)", "probe-labelled cysteine peptide fold change": -0.143}, {"target": "UBA2_Q9UBT2_161_GVTECYECHPKPTQR (UniProt Q9UBT2)", "probe-labelled cysteine peptide fold change": 0.0536}, {"target": "UAP1L1_Q3KQV9_278_LADPVFIGFCVLQGADCGAK (UniProt Q3KQV9)", "probe-labelled cysteine peptide fold change": 0.128}, {"target": "TXNRD1_Q16881_625_QLDSTIGIHPVCAEVFTTLSVTK (UniProt Q16881)", "probe-labelled cysteine peptide fold change": 0.287}, {"target": "UBA2_Q9UBT2_129_MCLAADVPLIESGTAGYLGQVTTIKK (UniProt Q9UBT2)", "probe-labelled cysteine peptide fold change": -0.0261}, {"target": "TXNL4A_P83876_38_FGHDWDPTCMK (UniProt P83876)", "probe-labelled cysteine peptide fold change": 0.0678}, {"target": "UBR2_Q8IWV8_1619_LINLPEDYSSLINQASNFSCPK (UniProt Q8IWV8)", "probe-labelled cysteine peptide fold change": 0.0975}, {"target": "UBA1_P22314_1039+1040_ALVLELCCNDESGEDVEVPYVR (UniProt P22314)", "probe-labelled cysteine peptide fold change": 0.172}, {"target": "TYMP_P19971_361_ALCSGSPAER (UniProt P19971)", "probe-labelled cysteine peptide fold change": -0.0102}]}]}
